In PubChem BioAssay AID504467 (National Center for Advancing Translational Sciences (NCATS), 2011):
The campaign covered roughly 330,000 compounds. About 7,700 (2.3%) were called active. The shares of active, inactive and inconclusive entries below differ from those in the screen. The call rests on the fitted dose curve; in most records, active means well fitted inhibition curve with a large enough effect; inconclusive means small, poorly fitted or top-dose-only effect, or effect the other way; inactive means flat fitted curve, though single readings scatter. A potency beside an inconclusive call is a rough fit, not a confirmed value.

Test: qHTS screen for small molecules that inhibit ELG1-dependent DNA repair in human embryonic kidney (HEK293T) cells expressing luciferase-tagged ELG1; further: nearly all actives have a fitted effect of over 55% in size
Settings: HEK293T ELG1-luciferase reporter, luminescence, 16 h, DNA damage induced by 5-fluorouridine; activity change, negative = inhibition: at 46.1 µM (top of the series)
Summary of the method: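 Luminescence from the luciferase reporter, measured 30 min after ONE-Glo reagent at room temperature, was the read-out. Beforehand, 2,000 cells per well were exposed for 16 hr at 37 °C to 5-fluorouridine together with compound or vehicle.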
On the % scale 0 is the no-effect control and ±100 the full control effect; potency means the concentration at half of the fitted maximal effect.

| SMILES | Potency | activity change, negative = inhibition |
| --- | --- | --- |
| COc1ccc(Nc2nc(N)nc(CSC(=S)N3CCN(c4ccccc4)CC3)n2)cc1 | active: 11.6 µM | – |
| CC(=O)Nc1ccc(S(=O)(=O)N(CC(=O)Nc2cc(C)on2)Cc2ccc(F)cc2)cc1 | inconclusive: 23.1 µM [inhibitor, partial curve, poor fit] | – |
| CC(C)(C)c1ccc(C(=O)NCCn2c(N)c(C#N)c3nc4ccccc4nc32)cc1 | inconclusive: 32.6 µM [inhibitor, single point] | – |
| CCN(CC)C(=O)/C=C/c1ccccc1 | inconclusive: 25.9 µM [activator, partial curve, poor fit] | – |
| Cc1ccc(Nc2nnc(SCC(=O)Nc3cccc(S(=O)(=O)NC4=NCCCCC4)c3)s2)c(C)c1 | inconclusive: 16.4 µM [inhibitor, partial curve] | – |
| COc1ccc(CCC(=O)OCC(=O)N(CC(C)C)c2c(N)n(Cc3ccccc3)c(=O)[nH]c2=O)cc1 | – | inactive: 9.93% |
| CC1CCCCN1CCNC(=O)CN1C(=O)CSc2ccc(S(=O)(=O)N3CCCCC3)cc21 (configuration not stated) | – | inactive: 0.969% |
| O=C(c1ccc(Cl)cc1[N+](=O)[O-])N(Cc1ccccc1)Cc1ccccc1 | inconclusive: 16.4 µM [inhibitor, partial curve] | – |
| C=CCSC(=S)NC1CCS(=O)(=O)C1 (configuration not stated) | inconclusive: 18.4 µM [inhibitor, single point] | – |
| CC(C)(CN1CCc2ccccc2C1)NS(=O)(=O)c1ccc(Cl)cc1 | inconclusive: 29.1 µM [inhibitor, single point] | – |
| Cc1noc(C(=O)NC2CCCCC2)c1Cl | – | inactive: 1.73% |
| COC(=O)c1ccc(CNC(=O)c2ccc(NS(=O)(=O)c3ccc4[nH]c(=O)[nH]c4c3)cc2)cc1 | inconclusive: 29.1 µM [inhibitor, single point] | – |
| O=C(NC1CCOc2ccccc21)c1ccc(=O)[nH]c1 (configuration not stated) | inconclusive: 20.6 µM [activator, partial curve, poor fit] | – |
| COc1ccc2c(c1)CC/C(=C\c1ccc(OC)c(Cn3nc(C)cc3C)c1)C2=O | inconclusive: 20.6 µM [inhibitor, single point] | – |
| CC1Cc2ccccc2N1S(=O)(=O)c1cccc(C(=O)NCCCn2ccnc2)c1 (configuration not stated) | inconclusive: 29.1 µM [inhibitor, single point] | – |
| CCN(CC)c1ccc(/C=N/NC(=O)c2ccco2)c(O)c1 | inconclusive: 14.6 µM [activator, partial curve] | – |
| C/C(CC(=O)Nc1ccc(F)cc1)=N\NC(=O)c1ccccn1 | inconclusive: 29.1 µM [activator, single point] | – |
| O=C(NC1=C(Nc2ccc(F)cc2)C(=O)c2ccccc2C1=O)c1ccc(Cl)cc1 | – | inactive: -10.3% |
| CC(=O)Nc1ccc(S(=O)(=O)NC2CC3CCC2C3)cc1 (configuration not stated) | inconclusive: 2 µM [inhibitor, partial curve, poor fit] | – |
| CN(C)c1ccc(C(=O)NC2CCCc3ccccc32)cc1 (configuration not stated) | inconclusive: 18.3 µM [activator, partial curve] | – |
| CCC(C)[C@H]1CN=C(N)N1CCCc1cc(OC)c(OC)c(OC)c1 (some centres not stated) | – | inactive: 4.25% |
| COCCCNC(=S)NC(=O)c1ccc([N+](=O)[O-])cc1 | inconclusive: 18.4 µM [activator, single point] | – |
| O=C(CCNC(=O)C1CCN(S(=O)(=O)c2ccc(F)cc2)CC1)NCc1ccccc1 | – | inactive: -1.56% |

| SMILES | Potency | activity change, negative = inhibition |
| --- | --- | --- |
| Cc1ccc(NC(=O)CSc2nc(NS(=O)(=O)c3ccccc3)cc(=O)[nH]2)cc1 | inconclusive: 29.1 µM [activator, partial curve, poor fit] | – |
| O=c1cc(CSc2ccc(Cl)cc2)nc(-c2ccccc2)[nH]1 | inconclusive: 20.6 µM [inhibitor, partial curve, poor fit] | – |
| COc1ccc(CNC(=O)c2ccc(CS(=O)(=O)Cc3ccccc3F)o2)cc1 | inconclusive: 23.1 µM [inhibitor, single point] | – |
| Cc1cc(C)cc(C(=O)NCC(=O)OCC(=O)NC2CC2)c1 | inconclusive: 20.6 µM [activator, partial curve, poor fit] | – |
| COc1cc(NC(=O)C(C)C)ccc1NC(=O)c1cc2ccccc2o1 | inconclusive: 25.9 µM [activator, single point] | – |
| O=c1c2c([nH]c3ccccc13)CCCCC2 | inconclusive: 20.6 µM [inhibitor, partial curve] | – |
| CCCCN(CC)C(=O)Cc1ccccc1OC | – | inactive: -14.9% |
| O=C1CCc2cc(S(=O)(=O)N3CCC(C(=O)NC4CCCC4)CC3)ccc2N1 | – | inactive: 3.22% |
| O=S(=O)(NC1CCN(S(=O)(=O)c2c(F)cccc2F)C1)c1ccc2c(c1)OCCO2 (configuration not stated) | inconclusive: 0.58 µM [inhibitor, full curve] | – |
| CCCc1cc(=O)[nH]c(SCC(=O)c2c(N)n(C3CC3)c(=O)[nH]c2=O)n1 | – | inactive: 16.6% |
| O=C(CN1CCOCC1)Nc1ccc(NC(=O)CN2CCOCC2)c(Cl)c1 | inconclusive: 12.6 µM [inhibitor, partial curve, poor fit] | – |
| Cc1ccsc1CN(C)C(=O)CCc1nnc(COc2ccccc2)o1 | inconclusive: 20.6 µM [activator, partial curve] | – |
| CC1CCCCC1NC(=O)COC(=O)c1ccc2ncsc2c1 (configuration not stated) | inconclusive: 29.1 µM [activator, partial curve, poor fit] | – |
| Cc1ccc2nc(/C(C#N)=C\c3ccc(Oc4ccc(C(F)(F)F)cc4[N+](=O)[O-])cc3)[nH]c2c1 | inconclusive: 23.1 µM [activator, single point] | – |
| COc1ccc(-c2csc(N(CCCN(C)C)C(=O)c3cccs3)n2)cc1 | – | inactive: -7.02% |
| CCOC(=O)C1CCCN(C(=O)c2cn(CC(C)C)c(=O)c3cc(OC)c(OC)cc23)C1 (configuration not stated) | inconclusive: 11.6 µM [inhibitor, partial curve, poor fit] | – |
| CC(=O)Oc1ccc2occ(C(=O)c3cccs3)c2c1 | inconclusive: 8.2 µM [activator, partial curve] | – |
| COCCC(=O)N1CCc2c([nH]c3ccccc23)C1C(C)(C)C (configuration not stated) | – | inactive: 4.37% |
| CCCCN(CC)Cc1ccc(CNC(=S)Nc2cccc(F)c2)o1 | inconclusive: 29.1 µM [inhibitor, single point] | – |
| CCN(CC)S(=O)(=O)c1ccc(N2CCOCC2)c(NC(=O)Cc2ccccc2)c1 | inconclusive: 25.9 µM [inhibitor, partial curve] | – |
| CC(C)NS(=O)(=O)c1ccc(CCC(=O)N2CCC(C(N)=O)CC2)cc1 | inconclusive: 14.6 µM [inhibitor, single point] | – |
| CCOc1ccc2nc3sc(C(=O)N4CCN(C)CC4)c(N)c3cc2c1 | inconclusive: 13 µM [activator, partial curve] | – |
| CCn1c(=O)c2cc(C(=O)N3CCCC3)sc2c2ccccc21 | – | inactive: -12.1% |

Part of the list above in order of length of the SMILES, descending:

| SMILES | Potency | activity change, negative = inhibition |
| --- | --- | --- |
| CC(C)NS(=O)(=O)c1ccc(CCC(=O)N2CCC(C(N)=O)CC2)cc1 | inconclusive: 14.6 µM [inhibitor, single point] | – |
| COCCC(=O)N1CCc2c([nH]c3ccccc23)C1C(C)(C)C (configuration not stated) | – | inactive: 4.37% |
| Cc1ccsc1CN(C)C(=O)CCc1nnc(COc2ccccc2)o1 | inconclusive: 20.6 µM [activator, partial curve] | – |
| CCCCN(CC)C(=O)Cc1ccccc1OC | – | inactive: -14.9% |

Next part.

| SMILES | Potency | activity change, negative = inhibition |
| --- | --- | --- |
| COc1ccc(/C=C/c2nc3cc(-c4ccccc4)ccc3o2)cc1O | inconclusive: 29.1 µM [inhibitor, single point] | – |
| COC(=O)c1ccccc1S(=O)(=O)NNC(=O)C12CC3CC(CC(C3)C1)C2 | inconclusive: 4.11 µM [activator, single point] | – |
| O=C(c1noc2c1CCCC2)N1CCN(Cc2ccccc2)CC1 | – | inactive: 20.5% |
| COc1ccc(S(=O)(=O)N2CCOCC2)cc1C(=O)N(C)CCOc1ccc(Cl)cc1 | inconclusive: 25.9 µM [inhibitor, partial curve] | – |
| Cn1c(SCC(=O)N2CCN(c3ccccc3)CC2)nnc1-c1c[nH]c2ccccc12 | active: 10.3 µM | – |
| CC1CCCC(C)N1C(=O)c1cc(-c2ccc(Cl)c(Cl)c2)on1 (configuration not stated) | inconclusive: 11.2 µM [activator, partial curve] | – |
| Cc1[nH]c2ccc(C(=O)OCC(=O)Nc3cccc(S(N)(=O)=O)c3)cc2c1C | inconclusive: 23.1 µM [inhibitor, partial curve, poor fit] | – |
| Cc1ccccc1-c1nnc(SCc2ccccc2F)o1 | inconclusive: 11.6 µM [activator, partial curve, poor fit] | – |
| CCOC(=O)C1=C(C)N=C2c3ccccc3C(=O)C2C1c1ccc(Cl)cc1 (configuration not stated) | active: 20.6 µM | – |
| CCCCc1nc(SCC(=O)Nc2cccc(Cl)c2)n[nH]1 | – | inactive: 24.1% |
| Cc1ccc(C(=O)OCC(=O)c2cc(C)n(CC3CCCO3)c2C)cc1 (configuration not stated) | inconclusive: 16.4 µM [activator, partial curve] | – |
| O=C(NCCCN1CCc2ccccc2C1)Nc1ccc(Cl)cc1 | – | inactive: 9% |
| Cc1cccc(OCC(=O)Nc2cccc3nsnc23)c1 | inconclusive: 23.1 µM [activator, single point] | – |
| CC(C)n1nc(C(=O)Nc2ccc3c(c2)OCO3)c2ccccc2c1=O | inconclusive: 8.2 µM [activator, partial curve, poor fit] | – |
| COc1cc(/C=C/C(=O)Oc2coc(CSc3ncccn3)cc2=O)cc(OC)c1OC | inconclusive: 23.1 µM [activator, single point] | – |
| O=C(CCCCn1c(=S)[nH]c2ccsc2c1=O)NCc1ccc2c(c1)OCO2 | – | inactive: -7.52% |
| CCCCCn1c(N2CCN(Cc3ccccc3)CC2)nc2c1c(=O)[nH]c(=O)n2C | active: 16.4 µM | – |
| CN1CCN(S(=O)(=O)c2ccc(NS(=O)(=O)c3ccccc3)cc2)CC1 | inconclusive: 6.51 µM [activator, partial curve, poor fit] | – |
| CCCC1(C(=O)OCC)NC(c2ccc(OC)cc2OC)C2C(=O)N(c3ccccc3)C(=O)C21 (configuration not stated) | active: 11.6 µM | – |
| Cc1cc(/C=N\NC(=O)CC(=O)NC2CCCCC2)c(C)n1-c1cccc(Cl)c1Cl | – | inactive: -4.72% |
| CCOC(=O)c1cccc(NC(=O)c2cncc(Br)c2)c1 | inconclusive: 13 µM [activator, partial curve] | – |
